Data as given in PubChem BioAssay AID1259281 (Sanger Institute, 2017)

Assay: 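Find knock-downs that kill colorectal cancer cells alone or strengthen targeted drugs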 (primary screen)
Cell system: human COLO678 colorectal cancer cell line
Knock-down reagent: siRNA pool against human genes
Treatment: anchor drugs at fixed doses: BYL719 1 µM, cetuximab 5 µg/ml or trametinib 10 nM; DMSO vehicle for the siRNA-alone arm
Read-out: 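Surviving cells scaled to non-targeting siRNA control as replicate means; robust z-score for knock-down alone; synergy scores weigh knock-down with drug against the predicted combined effect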
Reading the numbers: robust z-score, siRNA alone: higher = more viable cells; strongly negative means essential; viability, siRNA alone: higher = more surviving cells; synergy score with BYL719 and synergy score with trametinib and synergy score with cetuximab: higher = stronger synergistic killing with drug
Rule for the call: 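Called essential (knock-down alone) if knock-down by itself drops cell number to a robust z-score under -3; all others no change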
Calls: active = essential (knock-down alone); inactive = no change
The deposit covers 794 reagents; below is an unselected part. 22 of all reagents (2.8%) were called active. 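Calls rest on knock-down alone only; drug synergy scores play no part in them.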 Unmarked entries are inactive. No viability above 1 is reported: the scale is capped. The record does not give: the amount of reagent, the time to read-out.

| Target gene | robust z-score, siRNA alone | viability, siRNA alone (fraction of control) | synergy score with BYL719 | synergy score with trametinib | synergy score with cetuximab |
| --- | --- | --- | --- | --- | --- |
| CMPK1 | 0.473 | 1 | 0.125 | 0.00112 | -0.0207 |
| PRKG1 | 0.473 | 1 | -0.07 | -0.0131 | 0.00406 |
| PIP4K2A | 0.473 | 1 | -0.0882 | 0.103 | -0.0393 |
| RPS6KB1 | 0.473 | 1 | 0.0594 | -0.0265 | 0.0056 |
| STK39 | 0.473 | 1 | 0.124 | 0.0706 | 0.0696 |
| PKMYT1 | 0.0285 | 0.986 | -0.0923 | 0.0723 | -0.0258 |
| MAPK8 | 0.473 | 1 | -0.0919 | 0.00632 | -0.0681 |
| TAOK2 | 0.473 | 1 | -0.0415 | 0.0558 | 0.0164 |
| CDK5R1 | -0.832 | 0.959 | 0.0325 | 0.0237 | -0.0107 |
| TGFBR3 | 0.473 | 1 | 0.0318 | -0.0187 | 0.0802 |
| EPHA1 | 0.473 | 1 | -0.0747 | -0.0299 | -0.048 |
| AURKC | 0.271 | 0.994 | 0.0529 | -0.0237 | -0.0741 |
| RAF1 | -2.67 | 0.9 | -0.0554 | -0.0141 | 0.0257 |
| ITPK1 | 0.473 | 1 | -0.0248 | -0.0614 | 0.0244 |
| ARAF | 0.473 | 1 | -0.0919 | 0.025 | 0.00131 |
| NME5 | 0.473 | 1 | -0.0919 | 0.064 | -0.0681 |
| WNK1 | 0.473 | 1 | 0.102 | 0.0562 | 0.0548 |
| HUNK | 0.473 | 1 | 0.148 | 0.0848 | 0.0789 |
| CDK5 | 0.473 | 1 | -0.0919 | 0.0453 | 0.0448 |
| NEK5 | 0.473 | 1 | -0.0919 | 0.0793 | 0.0868 |
| INSRR | 0.473 | 1 | 0.0829 | 0.0851 | -0.0362 |
| MAP2K6 | 0.277 | 0.994 | 0.00101 | 0.0269 | -0.0191 |
| KCNH2 | 0.473 | 1 | -0.0919 | 0.0348 | -0.0305 |
| NTN4 | 0.473 | 1 | -0.0472 | 0.0124 | 0.0764 |
| CLK3 | -0.515 | 0.969 | -0.12 | -0.0177 | -0.0974 |
| ADGRL2 | 0.473 | 1 | -0.0795 | 0.098 | -0.0261 |
| PRKAG3 | -2.21 | 0.915 | 0.0886 | -0.021 | -0.0152 |
| NIM1K | -1.71 | 0.931 | -0.0122 | -0.0074 | -0.0452 |
| CDKN2B | 0.473 | 1 | -0.0919 | -0.0417 | -0.0585 |
| RAD21 | 0.473 | 1 | 0.0403 | 0.0295 | 0.0276 |
| SNRK | -1.15 | 0.948 | 0.0636 | -0.0234 | -0.00458 |
| DUSP21 | 0.473 | 1 | 0.0758 | -0.000437 | 0.0334 |
| IPPK | -2.23 | 0.914 | 0.0576 | -0.0475 | -0.0253 |

The list goes on; the last 2 above are carried over.
| Target gene | robust z-score, siRNA alone | viability, siRNA alone (fraction of control) | synergy score with BYL719 | synergy score with trametinib | synergy score with cetuximab |
| --- | --- | --- | --- | --- | --- |
| DUSP21 | 0.473 | 1 | 0.0758 | -0.000437 | 0.0334 |
| IPPK | -2.23 | 0.914 | 0.0576 | -0.0475 | -0.0253 |
| SIK3 | 0.473 | 1 | -0.0373 | 0.11 | -0.0294 |
| CDK20 | 0.473 | 1 | 0.113 | 0.0305 | -0.0469 |
| TK2 | 0.473 | 1 | -0.0538 | 0.0449 | 0.0515 |
| PIM2 | 0.473 | 1 | -0.0919 | 0.107 | 0.101 |
| MOK | 0.473 | 1 | -0.00388 | 0.0124 | -0.0513 |
| MAP3K4 | 0.114 | 0.989 | -0.0409 | -0.00654 | -0.014 |
| ACSL6 | -1.81 | 0.928 | -0.158 | -0.0978 | -0.0822 |
| PIP5K1B | 0.473 | 1 | -0.0234 | -0.0576 | 0.00419 |
| TRIB1 | -0.797 | 0.96 | -0.0882 | -0.0156 | 0.0157 |
| SKAP1 | 0.473 | 1 | -0.0919 | 0.0786 | -0.0681 |
| INSR | -0.226 | 0.978 | -0.112 | -0.0388 | -0.0282 |
| MAP3K21 | 0.473 | 1 | 0.0407 | 0.0418 | 0.124 |
| PFKM | -0.585 | 0.966 | -0.0696 | 0.061 | -0.0296 |
| NF1 | 0.473 | 1 | -0.0919 | 0.0202 | -0.00659 |
| PRKD1 | 0.0183 | 0.986 | -0.105 | 0.117 | 0.0581 |
| HK2 | 0.473 | 1 | 0.136 | 0.0532 | 0.0334 |
| CTCF | 0.473 | 1 | -0.0745 | -0.0968 | 0.0154 |
